According to article PMC9384988, “The TPR domain of PgaA is a multifunctional scaffold that binds PNAG and modulates PgaB-dependent polymer processing” (PLoS Pathogens, 2022):
These are yes or no findings as the source states them, for the method shown. For part of these data: Binding seen in cells or lysates may run through a third protein. Some entries that bind do so weakly or less than the wild type. For part of these data: Where a sequence is shown, tags or fusion partners need not be part of it.

How the values were obtained:
[1] = biological target: T1, His-PgaA-Δ220 (His-PgaA-221-807) (E. coli K-12) (UniProt P69434); test: pull-down; Ni-NTA batch pull-down of N-terminally His-tagged PgaA constructs co-expressed with untagged PgaB constructs in E. coli BL21; lysate pellet solubilised in 1X PBS with 1% DDM, washes in PBS with 0.5% DDM, 4°C; Western blot with anti-his and anti-PgaB
T1 sequence: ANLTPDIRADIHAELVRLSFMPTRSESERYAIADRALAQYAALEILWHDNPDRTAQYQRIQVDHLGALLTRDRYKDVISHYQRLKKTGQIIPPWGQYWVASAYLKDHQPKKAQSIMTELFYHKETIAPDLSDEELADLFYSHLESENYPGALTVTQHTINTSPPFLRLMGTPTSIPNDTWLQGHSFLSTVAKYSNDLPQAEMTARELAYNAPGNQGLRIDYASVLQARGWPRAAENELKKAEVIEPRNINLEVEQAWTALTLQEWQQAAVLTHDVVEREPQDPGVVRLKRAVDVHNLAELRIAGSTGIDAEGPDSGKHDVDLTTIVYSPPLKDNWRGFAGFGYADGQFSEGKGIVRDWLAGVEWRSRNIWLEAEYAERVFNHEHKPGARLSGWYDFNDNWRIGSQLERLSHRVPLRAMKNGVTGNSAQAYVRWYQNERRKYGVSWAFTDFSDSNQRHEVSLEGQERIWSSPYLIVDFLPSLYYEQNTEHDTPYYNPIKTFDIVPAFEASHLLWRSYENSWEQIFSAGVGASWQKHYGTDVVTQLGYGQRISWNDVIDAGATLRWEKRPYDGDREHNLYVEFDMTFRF

His-PgaA (PgaA-32-807) = biological target: T2, His-PgaA (PgaA-32-807) (E. coli K-12, UniProt P69434 32-807); test: co-purification (NiNTA, gel filtration) with SDS-PAGE; His-PgaA and PgaB constructs co-expressed in BL21, extracted with 1% DDM, purified by NiNTA and gel filtration (20 mM Tris pH 8, 150 mM NaCl, 0.1% DDM); Coomassie gel of the purified complexes
T2 construct: also called His-PgaA-32-807; full-length PgaA; source: E. coli BL21: co-expressed with PgaB, in DDM extract of the lysate pellet (pull-down); expressed alone or with PgaB and purified (NiNTA, gel filtration, DDM); not shown: His6, N-terminal, kept
T2 sequence (looked up): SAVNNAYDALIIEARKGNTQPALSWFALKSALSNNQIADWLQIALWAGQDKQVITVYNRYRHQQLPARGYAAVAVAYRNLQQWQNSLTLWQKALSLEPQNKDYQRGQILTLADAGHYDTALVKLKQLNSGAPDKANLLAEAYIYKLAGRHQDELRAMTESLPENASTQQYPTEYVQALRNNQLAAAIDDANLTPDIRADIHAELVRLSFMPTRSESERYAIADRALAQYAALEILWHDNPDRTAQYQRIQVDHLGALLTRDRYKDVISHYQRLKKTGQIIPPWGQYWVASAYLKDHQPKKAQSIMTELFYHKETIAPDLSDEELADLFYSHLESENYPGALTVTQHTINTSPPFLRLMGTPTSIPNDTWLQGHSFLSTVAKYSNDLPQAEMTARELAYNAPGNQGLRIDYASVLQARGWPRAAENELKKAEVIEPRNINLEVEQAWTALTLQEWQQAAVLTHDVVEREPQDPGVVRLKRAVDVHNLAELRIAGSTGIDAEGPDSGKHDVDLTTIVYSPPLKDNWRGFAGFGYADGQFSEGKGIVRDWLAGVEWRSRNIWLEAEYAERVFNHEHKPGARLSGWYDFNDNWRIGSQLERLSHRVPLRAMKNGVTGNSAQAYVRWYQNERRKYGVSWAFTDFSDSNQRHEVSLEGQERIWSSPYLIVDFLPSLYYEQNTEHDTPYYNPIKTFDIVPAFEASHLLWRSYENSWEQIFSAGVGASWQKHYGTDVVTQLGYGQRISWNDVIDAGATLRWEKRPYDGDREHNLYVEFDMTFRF

[2] = biological target: PgaA-220-367 (crystallized fragment of PgaA-32-367) (E. coli K-12) (UniProt P69434); test: crystal structure; PgaA-32-367 without His6-tag, 16 mg/mL, sitting drop, PEG 8000, 0.1 M Tris, 200 mM MgCl2; space group P6_(2), two molecules in the asymmetric unit; both purified

B1: PgaB-1-672-C21S (enzyme, UniProt P75906 21-672)
chain: SISQSRTSFIPPQDRESLLAEQPWPHNGFVAISWHNVEDEAADQRFMSVRTSALREQFAWLRENGYQPVSIAQIREAHRGGKPLPEKAVVLTFDDGYQSFYTRVFPILQAFQWPAVWAPVGSWVDTPADKQVKFGDELVDREYFATWQQVREVARSRLVELASHTWNSHYGIQANATGSLLPVYVNRAYFTDHARYETAAEYRERIRLDAVKMTEYLRTKVEVNPHVFVWPYGEANGIAIEELKKLGYDMFFTLESGLANASQLDSIPRVLIANNPSLKEFAQQIITVQEKSPQRIMHIDLDYVYDENLQQMDRNIDVLIQRVKDMQISTVYLQAFADPDGDGLVKEVWFPNRLLPMKADIFSRVAWQLRTRSGVNIYAWMPVLSWDLDPTLTRVKYLPTGEKKAQIHPEQYHRLSPFDDRVRAQVGMLYEDLAGHAAFDGILFHDDALLSDYEDASAPAITAYQQAGFSGSLSEIRQNPEQFKQWARFKSRALTDFTLELSARVKAIRGPHIKTARNIFALPVIQPESEAWFAQNYADFLKSYDWTAIMAMPYLEGVAEKSADQWLIQLTNQIKNIPQAKDKSILELQAQNWQKNGQHQAISSQQLAHWMSLLQLNGVKNYGYYPDNFLHNQPEIDLIRPEFSTAWYPKND
binding [1]: binds

B2: PgaB-D115A (enzyme, UniProt P75906 21-672)
chain: CISQSRTSFIPPQDRESLLAEQPWPHNGFVAISWHNVEDEAADQRFMSVRTSALREQFAWLRENGYQPVSIAQIREAHRGGKPLPEKAVVLTFDAGYQSFYTRVFPILQAFQWPAVWAPVGSWVDTPADKQVKFGDELVDREYFATWQQVREVARSRLVELASHTWNSHYGIQANATGSLLPVYVNRAYFTDHARYETAAEYRERIRLDAVKMTEYLRTKVEVNPHVFVWPYGEANGIAIEELKKLGYDMFFTLESGLANASQLDSIPRVLIANNPSLKEFAQQIITVQEKSPQRIMHIDLDYVYDENLQQMDRNIDVLIQRVKDMQISTVYLQAFADPDGDGLVKEVWFPNRLLPMKADIFSRVAWQLRTRSGVNIYAWMPVLSWDLDPTLTRVKYLPTGEKKAQIHPEQYHRLSPFDDRVRAQVGMLYEDLAGHAAFDGILFHDDALLSDYEDASAPAITAYQQAGFSGSLSEIRQNPEQFKQWARFKSRALTDFTLELSARVKAIRGPHIKTARNIFALPVIQPESEAWFAQNYADFLKSYDWTAIMAMPYLEGVAEKSADQWLIQLTNQIKNIPQAKDKSILELQAQNWQKNGQHQAISSQQLAHWMSLLQLNGVKNYGYYPDNFLHNQPEIDLIRPEFSTAWYPKND
binding (His-PgaA (PgaA-32-807)): binds

B3: PgaA-220-367 (crystallized fragment of PgaA-32-367) (domain or fragment, UniProt P69434 220-367)
chain: DANLTPDIRADIHAELVRLSFMPTRSESERYAIADRALAQYAALEILWHDNPDRTAQYQRIQVDHLGALLTRDRYKDVISHYQRLKKTGQIIPPWGQYWVASAYLKDHQPKKAQSIMTELFYHKETIAPDLSDEELADLFYSHLESEN
binding [2]: no binding
